Measurements reported in patent publication US8003080B2, “Delivery of drug amines through an inhalation route” (priority 2002, dated 2011).
Structures can show the parent of a compound that is named as a salt.

format: physicochemical; conditions: Method B; aerosol recovered from the mass coated (mg)

First: CN1CCN(CCCN2c3ccccc3Sc3ccc(C(F)(F)F)cc32)CC1.Cl.Cl [Trifluoperazine 2HCl]
Second: Cl.Cl.OCCN1CCN(CCCN2c3ccccc3Sc3ccc(C(F)(F)F)cc32)CC1 [Fluphenazine 2HCl]
The Yield of the first is higher: 0.52 for the first, 0.33 for the second.

Compared with `Cc1cccc(C)c1OCC(C)N` (centres unmarked) [Mexiletine HCl], `CCOC(=O)[C@H](CCc1ccccc1)N[C@@H](C)C(=O)N1CCC[C@H]1C(=O)O` [Enalapril maleate] is lower in Yield: 0.44 for the first, 0.29 for the second.

Compound `CN1CCc2cccc3c2[C@H]1Cc1ccc(O)c(O)c1-3` [Apomorphine HCl] has a Yield of 0.60.
